{
  "source": "PubChem BioAssay AID1347423",
  "about": "(Functional Genomics Laboratory (NCATS/FGL), 2020)",
  "note": "Screen size: about 52,000 sequences; about 210 (0.4%) were called active.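 The calls were made as follows: active = gene whose silencing raises cell survival under the drug, median off-target-corrected z-score across its silencing RNAs 2 or more; inactive = the rest.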 The list shows a part of the results.",
  "data": [
    {"assay": "Resistance to Poly (ADP-Ribose) Polymerase inhibitor: Gene Identification via Genome-wide siRNA Screen", "conditions": "mouse BRCA2 R2336H ES cells, olaparib, CellTiter-Glo viability; hits give high values", "procedure,_shortened": "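Mouse BRCA2 R2336H ES cells were reverse-transfected with siRNA (20 nM final), treated at 48 h with 500 nM olaparib, and read by CellTiter-Glo after 72 h. Scores: MAD-based z per siRNA, median per gene, seed off-target correction.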", "values": [
      {"sequence": "CCGAUGUGCUCACUAUCACTT against Mrps35", "z-score": "inactive: 0.734"},
      {"sequence": "GGACAGUUCAGAACAAAUUTT against 9430093N24Rik", "z-score": "inactive: -1.45"},
      {"sequence": "GGAAUUUUCUCAUGAUCUUTT against Krtap3-3", "z-score": "inactive: -0.472"},
      {"sequence": "GCCCUAGGUGUAAUGAUAGTT against Amd1", "z-score": "inactive: -1.72"},
      {"sequence": "GGGUUCCAGAUACUUUCUUTT against Zfp261", "z-score": "inactive: -0.268"},
      {"sequence": "GGUAAAGACGUAAACUUACTT against Rhpn2", "z-score": "inactive: 1.35"},
      {"sequence": "GGUUUCUGCCCAGAGUCUATT against 2010106E10Rik", "z-score": "inactive: -1.47"},
      {"sequence": "GGUAUCACUACUUUUUAGUTT against Prnpip1", "z-score": "inactive: 0.665"},
      {"sequence": "GGUACUGUUGCGCUUUGCUTT against Narfl", "z-score": "inactive: -1.5"},
      {"sequence": "CGACUUGUCAUGAACCAAATT against Atrx", "z-score": "inactive: -2.25"},
      {"sequence": "GGCAUUCUCUAUGAAGCUGTT against Vrk3", "z-score": "inactive: 0.572"},
      {"sequence": "GGUUGAGAAACCAAUUUCATT against Retnlb", "z-score": "inactive: 0.21"},
      {"sequence": "GCUGAUCGUGCAGAUUUUATT against Chn2", "z-score": "inactive: 0.488"},
      {"sequence": "GGGCGACCUUUGAUUGACATT against Etv5", "z-score": "inactive: 2.34"},
      {"sequence": "GCUAAUACGAUCACUAGCUTT against Gdf6", "z-score": "inactive: 0.395"},
      {"sequence": "GGUCUAUCCUACCUCAAAGTT against Prlpc3", "z-score": "inactive: 1.59"},
      {"sequence": "GGUAGACCUUUUGUCACGGTT against Lass2", "z-score": "inactive: -1.29"},
      {"sequence": "GCUUUACUCCAGAUGGAUCTT against Chaf1b", "z-score": "inactive: -1.68"},
      {"sequence": "CGCCUUAUAAUAUACCUAUTT against 9030425E11Rik", "z-score": "inactive: 1.8"},
      {"sequence": "GGUCAUUUGAUCUUCUGGUTT against Cacybp", "z-score": "inactive: -0.153"},
      {"sequence": "GGGUGUUCCUUAUACAGUUTT against Zfp524", "z-score": "inactive: -1.3"},
      {"sequence": "GGGUGAUGAUCUUCAGCAATT against Txnrd3", "z-score": "inactive: -0.332"},
      {"sequence": "CCUAAAGUCUGAAUGUUCCTT against Il3", "z-score": "inactive: 0.306"},
      {"sequence": "CGAGAGAUGUAACAAAAAGTT against Sele", "z-score": "inactive: 1.14"},
      {"sequence": "GGUUUUUGAACUGGUAAGATT against Olfr725", "z-score": "inactive: -0.788"},
      {"sequence": "GGAAAAACAAGCAUUAGGUTT against BC052066", "z-score": "inactive: -0.0768"},
      {"sequence": "GGACUCUCAGAAGAAUGAUTT against Hmmr", "z-score": "inactive: 0.644"},
      {"sequence": "GCUGAAGCAUGCCCGUAAUTT against Racgap1", "z-score": "inactive: -0.414"},
      {"sequence": "GGGACUCAAAAGUCAAGUGTT against D5Ertd577e", "z-score": "inactive: 0.686"},
      {"sequence": "GUGACUCCCAAACUCCUGATT against Olfr1180", "z-score": "inactive: -2.02"},
      {"sequence": "GGCUUCUGGUACAUUAUUGTT against 9230112J07Rik", "z-score": "inactive: -1.17"},
      {"sequence": "GGGAAGGAUGACCUAACAATT against 2610029K21Rik", "z-score": "inactive: -1.56"},
      {"sequence": "GGCUGGCUUGCUUGUAAUATT against 1700001C02Rik", "z-score": "inactive: -0.371"},
      {"sequence": "CCAAAGUGGACACAAUUGCTT against Ephb6", "z-score": "inactive: 0.262"},
      {"sequence": "GGCCCACAAGUACCGUUACTT against Gcat", "z-score": "inactive: -0.0833"},
      {"sequence": "CGAGUCUAUAAACCUCAAATT against 2310002A05Rik", "z-score": "inactive: 0.482"},
      {"sequence": "GGUAAGCUCCAAUUAUGCCTT against A130030D10Rik", "z-score": "inactive: 0.611"},
      {"sequence": "GGAGAAGUCAUGAAACAAATT against Park2", "z-score": "inactive: 0.943"},
      {"sequence": "GCUGUUAACUUGGAAGACUTT against Fut11", "z-score": "inactive: 0.967"},
      {"sequence": "GGAGAAGAAAGUGUUGAAATT against Klhdc4", "z-score": "inactive: 0.61"},
      {"sequence": "CCUGAUCACCAGAUGCUGATT against Sprr1a", "z-score": "inactive: 0.745"},
      {"sequence": "GGAAAUUGGGACUCACAUCTT against 2410002O22Rik", "z-score": "inactive: -0.618"},
      {"sequence": "GCUUCCUACGGUGUGUCAATT against Hnrpu", "z-score": "inactive: -0.423"},
      {"sequence": "GCGUGGAAAUCAACUUACATT against 4933417A14Rik", "z-score": "inactive: -0.661"},
      {"sequence": "GGAUGUUGAUCUGACUCACTT against Ppp1r7", "z-score": "inactive: -1.4"},
      {"sequence": "AUAUAUGCUUACCUUGCUATT against Ubl5", "z-score": "inactive: 0.0811"},
      {"sequence": "CCAGUCCUACUUAGCAAAGTT against BC046404", "z-score": "inactive: 1.34"},
      {"sequence": "GCAGUCUUAAUUCAUGGUGTT against Slco6c1", "z-score": "inactive: -0.609"},
      {"sequence": "GGCAGCCAAGAAAAUGUUATT against Gstt2", "z-score": "inactive: -0.789"},
      {"sequence": "GCGGAAAAGGGAGUUGCCUTT against Hand1", "z-score": "inactive: 1"},
      {"sequence": "GCUCUAUGUCAGAAACCAGTT against C4bp", "z-score": "inactive: -0.818"},
      {"sequence": "CCUUUGGUGAAGCCUGGAUTT against Kiss1", "z-score": "inactive: 0.0368"},
      {"sequence": "GCCAGUCUGGAGUUGCUUUTT against Timm23", "z-score": "inactive: -2.4"},
      {"sequence": "GCUUUGUAACCGUCCUCCATT against Ftl1", "z-score": "inactive: -0.694"},
      {"sequence": "GCUACAGUCUCUUUUAGCATT against Dnclic1", "z-score": "inactive: 0.608"},
      {"sequence": "GCCCGACAUAGAAUUCACCTT against Ncor2", "z-score": "inactive: 1.23"},
      {"sequence": "GGAAACAAGGAAGCAAUUATT against Psmd1", "z-score": "inactive: -3.7"},
      {"sequence": "GGCAAUGUAUUAAUUACAGTT against Otc", "z-score": "inactive: 0.415"},
      {"sequence": "GGUAGCUCUGAGACAAUUCTT against Pkhd1l1", "z-score": "inactive: -0.669"},
      {"sequence": "CCUGAUGUUUACUAUAAACTT against Atp6v1g3", "z-score": "inactive: 0.819"},
      {"sequence": "CGGAUACAGGUUCGGGUAATT against BC030440", "z-score": "inactive: -0.942"},
      {"sequence": "GGCUUGAUGAAUAUUCCAUTT against 2310021H06Rik", "z-score": "inactive: -1.23"},
      {"sequence": "GGACGAGGAAAAGUCAUCATT against 4930579C12Rik", "z-score": "inactive: -0.848"},
      {"sequence": "GAACGACAACCCGAUAAUGTT against 2210019E14Rik", "z-score": "inactive: 0.943"},
      {"sequence": "GGGCUUCCCUUACAAAAGGTT against Padi3", "z-score": "inactive: 0.789"},
      {"sequence": "GGACACAGGGUCUCUUACATT against Msrb", "z-score": "inactive: 0.871"}
    ]}
  ]
}
